From patent US5473056 come the findings set out here.

Amino acid sequences for entries named in this document (tags omitted). A change or cut given only in a name is not applied to a line headed by its entry. Residues count along the entry.
UniProt Q01094, 120-191: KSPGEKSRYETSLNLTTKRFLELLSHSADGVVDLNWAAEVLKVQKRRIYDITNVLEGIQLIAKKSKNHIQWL
UniProt Q01094, 110-191: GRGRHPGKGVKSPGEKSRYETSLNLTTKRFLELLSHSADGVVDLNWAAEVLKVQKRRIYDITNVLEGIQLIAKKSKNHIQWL
UniProt Q01094, 110-170: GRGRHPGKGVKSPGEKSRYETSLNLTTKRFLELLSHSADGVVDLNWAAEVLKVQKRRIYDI
UniProt Q01094, 130-191: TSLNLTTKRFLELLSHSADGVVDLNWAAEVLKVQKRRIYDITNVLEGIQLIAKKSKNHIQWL
UniProt Q01094, 150-191: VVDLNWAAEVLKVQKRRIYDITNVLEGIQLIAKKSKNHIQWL
UniProt Q14209, 87-244: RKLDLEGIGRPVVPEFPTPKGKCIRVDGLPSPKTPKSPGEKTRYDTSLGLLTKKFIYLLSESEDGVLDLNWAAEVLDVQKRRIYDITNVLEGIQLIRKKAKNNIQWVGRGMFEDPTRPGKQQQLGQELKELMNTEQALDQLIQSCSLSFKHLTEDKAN

Holding throughout (assay): EMSA
In general terms: In EMSA bound probe runs differently from free probe, usually more slowly.

Series [1] concerns the target E2F-1 (90-170) (Homo sapiens) (UniProt Q01094). The following applies: deletion of 171-191 gives complete loss; protein in a lysate after overexpression; protein details: GST N-terminal (pGEX-2T); label: 32P end.
Series [2] has as its system HeLa E2F band 1 + band 5 (Homo sapiens). The following applies: strong band on mixing and co-refolding; purified native protein; label: 32P end.
For series [3], the target named is E2F-1 (120-191) (Homo sapiens) (UniProt Q01094). The conditions noted are these: reduced activity; protein in a lysate after overexpression; protein details: GST N-terminal (pGEX-2T); label: 32P end.
Series [4] deals with E2F-1 (110-191) (Homo sapiens) (UniProt Q01094). The conditions noted are these: wild-type activity; protein in a lysate after overexpression; protein details: GST N-terminal (pGEX-2T); label: 32P end.
Series [5] addresses T1, E2F-1 (90-150) (Homo sapiens) (UniProt Q01094).
T1 sequence: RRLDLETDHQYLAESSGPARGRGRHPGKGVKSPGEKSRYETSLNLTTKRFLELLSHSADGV
The following applies: lacks 171-191, complete loss; protein in a lysate after overexpression; protein details: GST N-terminal (pGEX-2T); label: 32P end.

Series [6] concerns E2F-1 + HeLa E2F band 5 (Homo sapiens). The following applies: identical to E2F-2 result; purified recombinant protein; label: 32P end.
Series [7] concerns HeLa E2F band 5 (Homo sapiens). The following applies: no signal individually under these conditions; purified native protein; label: 32P end.
For series [8], the system named is E2F-2 + HeLa E2F band 1 (Homo sapiens). The following applies: very strong band after co-refolding; excess mutant competitor present; purified recombinant protein; label: 32P end.
The target of series [9] is E2F-1 (110-170) (Homo sapiens) (UniProt Q01094). The following applies: lacks 171-191, complete loss; protein in a lysate after overexpression; protein details: GST N-terminal (pGEX-2T); label: 32P end.
Series [10] deals with E2F-2 full length (Homo sapiens) (UniProt Q14209). The conditions noted are these: purified recombinant protein; protein details: C-terminal Glu-Glu-Phe tubulin epitope; label: 32P end.
Series [11] deals with HeLa E2F band 1 (Homo sapiens). The following applies: no signal individually under these conditions; purified native protein; label: 32P end.
Series [12] deals with E2F-1 (130-191) (Homo sapiens) (UniProt Q01094). The conditions noted are these: text: any additional deletions reduced activity; protein in a lysate after overexpression; protein details: GST N-terminal (pGEX-2T); label: 32P end.
For series [13], the target named is E2F-2 (87-244) (Homo sapiens) (UniProt Q14209). The conditions noted are these: text states GST-E2F-2 fusions bind specifically; protein in a lysate after overexpression; protein details: GST N-terminal (pGEX-2T); label: 32P end.
For series [14], the system named is E2F-2 + HeLa E2F band 5 (Homo sapiens). The following applies: no band after co-refolding; purified recombinant protein; label: 32P end.
Series [15] concerns E2F-1 + HeLa E2F band 1 (Homo sapiens). The conditions noted are these: identical to E2F-2 result; purified recombinant protein; label: 32P end.
The target in series [16] is T2, E2F-1 (90-130) (Homo sapiens) (UniProt Q01094).
T2 sequence: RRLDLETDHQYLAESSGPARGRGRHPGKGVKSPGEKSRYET
The conditions noted are these: lacks 171-191, complete loss; protein in a lysate after overexpression; protein details: GST N-terminal (pGEX-2T); label: 32P end.

Series [17] concerns the target E2F-1 (150-191) (Homo sapiens) (UniProt Q01094). The following applies: text: any additional deletions reduced activity; protein in a lysate after overexpression; protein details: GST N-terminal (pGEX-2T); label: 32P end.
Series [18] deals with E2F-1 (90-191) (Homo sapiens) (UniProt Q01094). The conditions noted are these: crude lysate; reference activity; protein in a lysate after overexpression; protein details: GST N-terminal (pGEX-2T); label: 32P end.

For part of these data: Results from cells or extracts need not show a direct contact. For part of these data: A negative result means that nothing was seen under these conditions. For part of these data: Protein sequences can lack the tags named with them. For part of these data: A weaker result is weaker than the reference pair of the same experiment. For part of these data: Construct, isoform or probe ends are uncertain for at least one entry.

Turning to “TAGTTTTCGATATTAAATTTGAGTTTTCGCGCGAAACTAG (double strand) [E2F probe, single palindromic site]”, the binding result is given as “no binding” in [1]; “binds” in series [2]; “binds more weakly” in series [3]; “binds” in series [4]; “no binding” in series [5]; “no binding” in [6]. For the same sequence, the binding result in series [7] is reported as “no binding”; in series [8], “binds”; in series [9] it was “no binding”; in series [10] it was “binds”; in [11], “no binding”; in series [12] it was “binds more weakly”. In addition, the binding result in series [13] is on record as “binds”; in series [14] it was “no binding”; in series [15], “binds”; in [16] it was “no binding”; in [17], “binds more weakly”; in series [18], “binds”.
